# Data: PubChem BioAssay AID1224855 (National Center for Advancing Translational Sciences (NCATS), 2016)
# The shares of active, inactive and inconclusive entries below differ from those in the screen. Entries that show only a call come without a potency. Potencies of inconclusive entries are doubtful fits and often do not repeat. Calls of active or inactive are those of the source. Calls come from the whole dose curve; as a rule, active = well fitted inhibition curve with a large enough effect; inconclusive = small, poorly fitted or top-dose-only effect; inactive = no such curve, though single readings can be large or run the other way.
# Assay: Confirmation assay for measurement of the activity of small molecule inhibitors on Zika virus induced Caspase-3 activity in human iPSC derived neural progenitor cells (hNPCs)
# Text: National Center for Advancing Translational Sciences [NCATS] Johns Hopkins University School of Medicine Florida State University Assay Overview: Increase in the Caspase-3 activity indicates an activation of apoptosis cell death pathway caused by Zika virus infection in certain types of neuronal cells including human neural progenitor cells (hNPCs), astrocytes, and astrocytoma cell line (SNB-19). This cell-based caspase-3 activity assay measures the increased caspase-3 activity in the human iPSC derived neural progenitor cells (hNPCs) after a 6-hour Zika virus infection with a luminescence readout. A decrease in the luminescence signal in this assay by small molecule treatment indicates an inhibitory effect of that small molecule on the Zika virus induced caspase-3 activity that may correlate with its effect on reduction of Zika virus caused cell death.
# Assay Protocol Summary: The medium for hNPCs consists of DMEM/F12, N2 supplement (ThermoFisher, Cat.# 17502048), NEAA (ThermoFisher, Cat. # 11140050), 2 ug/ml heparin, 2 uM cyclopamine, and B27 (ThermoFisher, Cat. # 17504044). A Caspase-Glo 3/7 assay kit (catalog number G8092; Promega, Madison, WI) was used to detect caspase-3 activity induced by Zika virus infection in human cells. The reagent mixture was reconstituted as described in the protocol from the manufacturer. Polystyrene tissue culture treated and PDL coated white plates were obtained from Greiner Bio-One (Monroe, NC). Cells were seeded in 384- or 1536-well assay plates and cultured at 37 C with 5% CO2 for 16 to 20 hours. The typical cell seeding density in the 1536-well plate assay is 350 cells/well in 3 ul medium for hNPCs in tissue culture treated plates. Compounds were added to cells and incubated for one hour before addition of ZIKV solution to cells (2 FFU/cell). After incubation at 37 C with 5% CO2 for 6 hours, the reagent mixture of Caspase-Glo 3/7 assay kit was added to each well, followed by incubation at room temperature for 30 minutes. The luminescence intensity of the assay plates was measured using a ViewLux plate reader (PerkinElmer). Data were normalized by using the cell-containing wells without ZIKV as a negative control (0% induction of caspase 3/7 activity) and wells containing ZIKV infected cells (Caspase-3 activity induced) as a positive control (100% induction of caspase 3 activity). The percentage inhibitions of the increased Caspase-3 activity by small molecule inhibitors were then calculated.
row,SMILES,Potency
1,CC[n+]1c(-c2ccccc2)c2cc(N)ccc2c2ccc(N)cc21,inactive
2,Oc1ccc([C@H]2CNCc3c2ccc(O)c3O)cc1O,inactive
3,Cc1ccc([N+](=O)[O-])[c]2c1[O][Hg]2,"inconclusive: 3.08 µM [inhibitor, full curve, poor fit]"
4,CC(C)[N+](C)(CCC(C(N)=O)(c1ccccc1)c1ccccc1)C(C)C,inactive
5,S=C(SSC(=S)N1CCCCC1)N1CCCCC1,"inconclusive: 0.615 µM [inhibitor, partial curve, poor fit]"
6,CN1CC[C@@]2(C)c3cc(OC(=O)Nc4ccccc4)ccc3N(C)[C@@H]12,"inconclusive: 21.8 µM [inhibitor, single point]"
7,CC(O)CN1CCN(CC(=O)[O-])CCN(CC(=O)[O-])CCN(CC(=O)[O-])CC1.[Gd+3] (configuration not stated),inactive
